Results from patent US12156862B2, “Medicaments for the treatment of vasoconstriction related diseases or disorders” (Sulfateq B.V., priority 2017, dated 2024).
At least one read-out could not be matched to a standard name with certainty.

Test system: α1 adrenoceptor
Assay: Phenylephrine-induced constriction of isolated porcine intrarenal arteries (myography)
Details: 10-100 μM; in words
Method: Porcine kidneys were obtained from a local slaughterhouse (Kroon Vlees, Gotenburgweg 30, 9723 TM Groningen. The Netherlands) and transported on ice in normal physiological Krebs buffer containing 120 mM NaCl, 6 mM KCl, 2.5 mM CaCl2×2H2O, 1.2 mM MgCl2×6H2O, 1.2 mM NaH2PO4×H2O, 25 mM NaHCO3 and 11.4 mM D-(+)-Glucose monohydrate (all ingredients were purchased from Merck) in ultrapure water.
The renal artery tree was dissected from the kidney, cleaned of surrounding connective tissue and cut into equally-sized ring segments (2 mm in length). In some rings, endothelium denudation was performed by gentle rubbing of the intimal surface with a paper clip. Rings were mounted in organ baths as described previously (Buikema et al., 2000). Arterial rings were washed thoroughly by replacing Krebs buffer and allowed to equilibrate for a period of 60 min under 1.4 g of resting tension before they were assessed for viability by inducing 2 subsequent constrictions with KCl (60 mM). […]
Dose-dependent constriction responses to phenylephrine (10^−8M-10^−4M) were recorded in said isolated porcine intrarenal arteries. […]
Vascular constriction responses are expressed as percentage of final response to KCl. Data are expressed as mean±SEM. *p<0.05. […]

Row | Compound | effect on EC50 of phenylephrine-induced constriction
1 | Cc1c(C)c2c(c(C)c1O)CC[C@](C)(C(=O)N1CCNCC1)O2 [SUL-150, (R)(6-hydroxy-2,5,7,8-tetramethylchroman-2-yl)(piperazin-1-yl)methanone] | dose-dependent increase of EC50
2 | Cc1c(C)c2c(c(C)c1O)CCC(C)(C(=O)N1CCNCC1)O2 (centres unmarked) [SUL-151, (6-hydroxy-2,5,7,8-tetramethylchroman-2-yl)(piperazin-1-yl)methanone] | no significant effects
